From patent publication US10091998B2, “Tetrazolinone compound and use thereof” (SUMITOMO CHEMICAL COMPANY, LIMITED, priority 2013, dated 2018)
Some of these results come from one statement about several compounds together.

How the values were obtained:
Format in all cases: in vivo
[1] = test system: barley scald fungus (Rhynchosporium secalis); assay: Test Example 1: barley scald, foliar spray, preventive; details: 200 ppm spray on barley (MIKAMO GOLDEN); inoculated 2 days after spraying
[2] = test system: barley net blotch fungus (Pyrenophora teres); assay: Test Example 4: barley net blotch, foliar spray; details: 200 ppm spray on barley (MIKAMO GOLDEN); inoculated 2 days after spraying
[3] = test system: kidney bean stem rot fungus (Sclerotinia sclerotiorum); assay: Test Example 5: kidney bean stem rot, foliar spray; details: 200 ppm spray on kidney bean (NAGAUZURA SAIYTOU); investigated four days after inoculation
[4] = test system: wheat leaf blotch fungus (Septoria tritici); assay: Test Example 6: wheat leaf blotch, foliar spray; details: 200 ppm spray on wheat (APOGEE); inoculated 4 days after spraying
[5] = test system: cucumber anthracnose fungus (Colletotrichum lagenarium); assay: Test Example 10: cucumber anthracnose, foliar spray; details: 200 ppm spray on cucumber (SAGAMI HANJIRO); inoculated 1 day after spraying

## Cc1cccc(-n2nnn(C)c2=O)c1OCc1ccccc1 [Present Compound 1, 1-(2-phenylmethoxy-3-methylphenyl)-4-methyl-1,4-dihydrotetrazol-5-one]
[1]
  area of lesion on the treated plant relative to that on an untreated plant: ≤ 30%

## Cc1cccc(COc2c(C)cccc2-n2nnn(C)c2=O)c1 [Present Compound 2, 1-[2-(3-methylphenyl)methoxy-3-methylphenyl]-4-methyl-1,4-dihydrotetrazol-5-one]
[2]
  area of lesion on the treated plant relative to that on an untreated plant: ≤ 30%
[3]
  area of lesion on the treated plant relative to that on an untreated plant: ≤ 30%
[1]
  area of lesion on the treated plant relative to that on an untreated plant: ≤ 30%

## Cc1ccc(C)c(COc2c(C)cccc2-n2nnn(C)c2=O)c1 [Present Compound 5]
[2]
  area of lesion on the treated plant relative to that on an untreated plant: ≤ 30%
[4]
  area of lesion on the treated plant relative to that on an untreated plant: ≤ 30%
[1]
  area of lesion on the treated plant relative to that on an untreated plant: ≤ 30%

## Cc1ccc(COc2c(C)cccc2-n2nnn(C)c2=O)cc1 [Present Compound 9]
[5]
  area of lesion on the treated plant relative to that on an untreated plant: ≤ 30%
[1]
  area of lesion on the treated plant relative to that on an untreated plant: ≤ 30%

## Cc1cc(Br)ccc1COc1c(C)cccc1-n1nnn(C)c1=O [Present Compound 12]
[2]
  area of lesion on the treated plant relative to that on an untreated plant: ≤ 30%
[4]
  area of lesion on the treated plant relative to that on an untreated plant: ≤ 30%
[1]
  area of lesion on the treated plant relative to that on an untreated plant: ≤ 30%

## COc1ccc(-c2ccc(COc3c(C)cccc3-n3nnn(C)c3=O)c(C)c2)cc1 [Present Compound 16]
[2]
  area of lesion on the treated plant relative to that on an untreated plant: ≤ 30%
[3]
  area of lesion on the treated plant relative to that on an untreated plant: ≤ 30%
[1]
  area of lesion on the treated plant relative to that on an untreated plant: ≤ 30%

## Cc1cc(-c2ncc(C(F)(F)F)cc2Cl)ccc1COc1c(C)cccc1-n1nnn(C)c1=O [Present Compound 21]
[2]
  area of lesion on the treated plant relative to that on an untreated plant: ≤ 30%
[3]
  area of lesion on the treated plant relative to that on an untreated plant: ≤ 30%
[4]
  area of lesion on the treated plant relative to that on an untreated plant: ≤ 30%
[5]
  area of lesion on the treated plant relative to that on an untreated plant: ≤ 30%
[1]
  area of lesion on the treated plant relative to that on an untreated plant: ≤ 30%

## Cc1cc(-c2ncccc2Cl)ccc1COc1c(C)cccc1-n1nnn(C)c1=O [Present Compound 22]
[2]
  area of lesion on the treated plant relative to that on an untreated plant: ≤ 30%
[3]
  area of lesion on the treated plant relative to that on an untreated plant: ≤ 30%
[4]
  area of lesion on the treated plant relative to that on an untreated plant: ≤ 30%
[1]
  area of lesion on the treated plant relative to that on an untreated plant: ≤ 30%

## Cc1cccc(-n2nnn(C)c2=O)c1OCc1ccc(-c2cccc(Cl)n2)cc1 [Present Compound 24]
[2]
  area of lesion on the treated plant relative to that on an untreated plant: ≤ 30%
[4]
  area of lesion on the treated plant relative to that on an untreated plant: ≤ 30%
[1]
  area of lesion on the treated plant relative to that on an untreated plant: ≤ 30%

## Cc1cc(-c2ccccc2)ccc1/C=C/c1c(C)cccc1-n1nnn(C)c1=O [Present Compound 27, 1-{2-[2-(3-methylbiphenyl-4-yl)ethenyl]-3-methylphenyl}-4-methyl-1,4-dihydrotetrazol-5-one]
[2]
  area of lesion on the treated plant relative to that on an untreated plant: ≤ 30%
[4]
  area of lesion on the treated plant relative to that on an untreated plant: ≤ 30%
[5]
  area of lesion on the treated plant relative to that on an untreated plant: ≤ 30%
[1]
  area of lesion on the treated plant relative to that on an untreated plant: ≤ 30%

## Cn1nnn(-c2cccc(C3CC3)c2/C=C/c2ccc(-c3ccccc3)cc2)c1=O [Present Compound 31, 1-{2-[2-(biphenyl-4-yl)ethenyl]-3-cyclopropylphenyl}-4-methyl-1,4-dihydrotetrazol-5-one]
[2]
  area of lesion on the treated plant relative to that on an untreated plant: ≤ 30%
[4]
  area of lesion on the treated plant relative to that on an untreated plant: ≤ 30%
[1]
  area of lesion on the treated plant relative to that on an untreated plant: ≤ 30%

## Cc1cc(-c2ccc(Cl)cn2)ccc1COc1c(C)cccc1-n1nnn(C)c1=O [Present Compound 32]
[2]
  area of lesion on the treated plant relative to that on an untreated plant: ≤ 30%
[4]
  area of lesion on the treated plant relative to that on an untreated plant: ≤ 30%
[1]
  area of lesion on the treated plant relative to that on an untreated plant: ≤ 30%

## Cc1cc(-c2cc(Cl)ccn2)ccc1COc1c(C)cccc1-n1nnn(C)c1=O [Present Compound 33]
[2]
  area of lesion on the treated plant relative to that on an untreated plant: ≤ 30%
[4]
  area of lesion on the treated plant relative to that on an untreated plant: ≤ 30%
[1]
  area of lesion on the treated plant relative to that on an untreated plant: ≤ 30%

## Cc1ccc(-c2ccc(COc3c(C)cccc3-n3nnn(C)c3=O)c(C)c2)nc1 [Present Compound 34]
[2]
  area of lesion on the treated plant relative to that on an untreated plant: ≤ 30%
[4]
  area of lesion on the treated plant relative to that on an untreated plant: ≤ 30%
[1]
  area of lesion on the treated plant relative to that on an untreated plant: ≤ 30%

## Cc1ccnc(-c2ccc(COc3c(C)cccc3-n3nnn(C)c3=O)c(C)c2)c1 [Present Compound 35]
[2]
  area of lesion on the treated plant relative to that on an untreated plant: ≤ 30%
[4]
  area of lesion on the treated plant relative to that on an untreated plant: ≤ 30%
[1]
  area of lesion on the treated plant relative to that on an untreated plant: ≤ 30%

## Cc1cc(-c2ncccc2C)ccc1COc1c(C)cccc1-n1nnn(C)c1=O [Present Compound 36]
[2]
  area of lesion on the treated plant relative to that on an untreated plant: ≤ 30%
[4]
  area of lesion on the treated plant relative to that on an untreated plant: ≤ 30%
[1]
  area of lesion on the treated plant relative to that on an untreated plant: ≤ 30%

## Cc1cc(-c2cccc(F)n2)ccc1COc1c(C)cccc1-n1nnn(C)c1=O [Present Compound 37]
[2]
  area of lesion on the treated plant relative to that on an untreated plant: ≤ 30%
[4]
  area of lesion on the treated plant relative to that on an untreated plant: ≤ 30%
[1]
  area of lesion on the treated plant relative to that on an untreated plant: ≤ 30%

## Cc1cc(-c2ncccc2F)ccc1COc1c(C)cccc1-n1nnn(C)c1=O [Present Compound 40]
[2]
  area of lesion on the treated plant relative to that on an untreated plant: ≤ 30%
[4]
  area of lesion on the treated plant relative to that on an untreated plant: ≤ 30%
[1]
  area of lesion on the treated plant relative to that on an untreated plant: ≤ 30%

## Cc1ccc(-c2cc(C)c(COc3c(C)cccc3-n3nnn(C)c3=O)cc2C)nc1 [Present Compound 41]
[2]
  area of lesion on the treated plant relative to that on an untreated plant: ≤ 30%
[4]
  area of lesion on the treated plant relative to that on an untreated plant: ≤ 30%
[1]
  area of lesion on the treated plant relative to that on an untreated plant: ≤ 30%

## Cc1ccnc(-c2cc(C)c(COc3c(C)cccc3-n3nnn(C)c3=O)cc2C)c1 [Present Compound 42]
[2]
  area of lesion on the treated plant relative to that on an untreated plant: ≤ 30%
[4]
  area of lesion on the treated plant relative to that on an untreated plant: ≤ 30%
[1]
  area of lesion on the treated plant relative to that on an untreated plant: ≤ 30%

## Cc1cc(-c2ncccc2C)c(C)cc1COc1c(C)cccc1-n1nnn(C)c1=O [Present Compound 43]
[2]
  area of lesion on the treated plant relative to that on an untreated plant: ≤ 30%
[4]
  area of lesion on the treated plant relative to that on an untreated plant: ≤ 30%
[1]
  area of lesion on the treated plant relative to that on an untreated plant: ≤ 30%

## Cc1cc(-c2ccc(Cl)cn2)c(C)cc1COc1c(C)cccc1-n1nnn(C)c1=O [Present Compound 44]
[2]
  area of lesion on the treated plant relative to that on an untreated plant: ≤ 30%
[3]
  area of lesion on the treated plant relative to that on an untreated plant: ≤ 30%
[4]
  area of lesion on the treated plant relative to that on an untreated plant: ≤ 30%
[1]
  area of lesion on the treated plant relative to that on an untreated plant: ≤ 30%

## Cc1cc(-c2cc(Cl)ccn2)c(C)cc1COc1c(C)cccc1-n1nnn(C)c1=O [Present Compound 45]
[2]
  area of lesion on the treated plant relative to that on an untreated plant: ≤ 30%
[4]
  area of lesion on the treated plant relative to that on an untreated plant: ≤ 30%
[1]
  area of lesion on the treated plant relative to that on an untreated plant: ≤ 30%

## Cc1cc(-c2ncccc2F)c(C)cc1COc1c(C)cccc1-n1nnn(C)c1=O [Present Compound 46]
[2]
  area of lesion on the treated plant relative to that on an untreated plant: ≤ 30%
[4]
  area of lesion on the treated plant relative to that on an untreated plant: ≤ 30%
[1]
  area of lesion on the treated plant relative to that on an untreated plant: ≤ 30%

## Cc1cc(-c2cccc(F)n2)c(C)cc1COc1c(C)cccc1-n1nnn(C)c1=O [Present Compound 47]
[2]
  area of lesion on the treated plant relative to that on an untreated plant: ≤ 30%
[4]
  area of lesion on the treated plant relative to that on an untreated plant: ≤ 30%
[1]
  area of lesion on the treated plant relative to that on an untreated plant: ≤ 30%

## Cc1cc(-c2ccc(F)cn2)c(C)cc1COc1c(C)cccc1-n1nnn(C)c1=O [Present Compound 48]
[2]
  area of lesion on the treated plant relative to that on an untreated plant: ≤ 30%
[3]
  area of lesion on the treated plant relative to that on an untreated plant: ≤ 30%
[4]
  area of lesion on the treated plant relative to that on an untreated plant: ≤ 30%
[1]
  area of lesion on the treated plant relative to that on an untreated plant: ≤ 30%

## Cc1cc(-c2cc(F)ccn2)c(C)cc1COc1c(C)cccc1-n1nnn(C)c1=O [Present Compound 49]
[2]
  area of lesion on the treated plant relative to that on an untreated plant: ≤ 30%
[3]
  area of lesion on the treated plant relative to that on an untreated plant: ≤ 30%
[4]
  area of lesion on the treated plant relative to that on an untreated plant: ≤ 30%
[1]
  area of lesion on the treated plant relative to that on an untreated plant: ≤ 30%

## Cc1cc(COc2c(C)cccc2-n2nnn(C)c2=O)c(C)cc1Br [Present Compound 50]
[2]
  area of lesion on the treated plant relative to that on an untreated plant: ≤ 30%
[4]
  area of lesion on the treated plant relative to that on an untreated plant: ≤ 30%
[1]
  area of lesion on the treated plant relative to that on an untreated plant: ≤ 30%

## Cc1cccc(COCc2c(C)cccc2-n2nnn(C)c2=O)c1 [Present Compound 52]
[1]
  area of lesion on the treated plant relative to that on an untreated plant: ≤ 30%

## Cc1cccc(-n2nnn(C)c2=O)c1COC(C)c1ccc(-c2ccccc2)cc1 (stereo not drawn) [Present Compound 54, 1-(2-{[1-(biphenyl-4-yl)ethoxy]methyl}-3-methylphenyl)-4-methyl-1,4-dihydrotetrazol-5-one]
[4]
  area of lesion on the treated plant relative to that on an untreated plant: ≤ 30%
[1]
  area of lesion on the treated plant relative to that on an untreated plant: ≤ 30%

## Cc1cc(-n2cccn2)ccc1COc1c(C)cccc1-n1nnn(C)c1=O [Present Compound 58]
[4]
  area of lesion on the treated plant relative to that on an untreated plant: ≤ 30%

## Cc1cc(-n2nc(C)c(C)c2C)ccc1COc1c(C)cccc1-n1nnn(C)c1=O [Present Compound 59]
[4]
  area of lesion on the treated plant relative to that on an untreated plant: ≤ 30%
